Source: the supplement of paper PMC9015667
Structures can show the parent of a compound that is named as a salt. This is one part of the list. Single values are uncertain, as repeats are few or missing.

Columns and labels:
Experiment in all cases: reduction in cell viability relative to untreated/vehicle; higher = more growth inhibition
Details in all cases: 200 nM; 72 h
[1] = test system: M229P (parental melanoma line)
[2] = test system: M229R (matched melanoma line resistant to BRAF inhibitors)
[3] = test system: M238P (parental melanoma line)
[4] = test system: M238R (matched melanoma line resistant to BRAF inhibitors)
[5] = test system: M249P (parental melanoma line)
[6] = test system: M249R (matched melanoma line resistant to BRAF inhibitors)
[7] = test system: UACC62P (parental melanoma line)
[8] = test system: UACC62R (matched melanoma line resistant to BRAF inhibitors)

SMILES	reduction in cell viability [1] [%]	reduction in cell viability [2] [%]	reduction in cell viability [3] [%]	reduction in cell viability [4] [%]	reduction in cell viability [5] [%]	reduction in cell viability [6] [%]	reduction in cell viability [7] [%]	reduction in cell viability [8] [%]
O=C(O)CNC(=O)c1c(O)c2ccccc2n(Cc2ccccc2)c1=O	< 0	< 0	< 0	< 0	< 0	< 0	1	< 0
COc1cc(OC)c(OC)cc1C=O [Asaraldehyde]	< 0	< 0	< 0	< 0	< 0	< 0	< 0	< 0
CN[C@@H]1Cc2cccc3[nH]c(=O)n(c23)C1 [Sumanirole maleate]	< 0	< 0	< 0	< 0	< 0	< 0	2.87	< 0
C[C@@H]1O[C@@H](O[C@H]2C[C@@H](O)[C@]3(CO)[C@H]4[C@H](O)C[C@]5(C)[C@@H](C6=CC(=O)OC6)CC[C@]5(O)[C@@H]4CC[C@]3(O)C2)[C@H](O)[C@H](O)[C@H]1O [G-Strophanthin]	74	83.6	72	82.1	78	86.3	73	63.9
CCOP(=O)(OCC)C(C)NC(=O)N(CCCl)N=O (stereo unspecified) [Fotemustine]	< 0	< 0	< 0	< 0	< 0	< 0	10.8	< 0
O=C(O[C@H]1C[C@H]2CC[C@@H](C1)[N+]21CCCC1)C(O)(c1ccccc1)c1ccccc1 [Trospium chloride]	< 0	< 0	< 0	< 0	< 0	< 0	< 0	< 0
COc1cc([C@@H]2c3cc4c(cc3[C@@H](O)[C@H]3COC(=O)[C@H]23)OCO4)cc(OC)c1O [4-Demethylepipodophyllotoxin]	31.8	31.3	72.5	69.7	63.3	45.2	50.5	85.6
CCOC(=O)c1c(/C(C#N)=C\N)c2ccc(Cl)c(Cl)c2n1C	< 0	< 0	< 0	< 0	< 0	< 0	< 0	< 0
CC(C)(O)/C=C/C(=O)[C@](C)(O)[C@H]1[C@H](O)C[C@@]2(C)[C@@H]3CC=C4[C@@H](C=C(O)C(=O)C4(C)C)[C@]3(C)C(=O)C[C@]12C [Cucurbitacin I]	33.8	48.2	53.1	69.5	59.5	66	33	65.1
Cc1ccccn1.N.[Cl-].[Cl-].[Pt+2] [Picoplatin]	< 0	< 0	< 0	< 0	< 0	< 0	14.4	< 0
C[C@]12CC[C@H]3[C@@H](CCC4=CC(=O)CC[C@@]43C)[C@@H]1CC[C@@H]2O [Testosterone]	< 0	< 0	< 0	< 0	< 0	< 0	< 0	< 0
N[C@@H](Cc1ccc(N(CCCl)CCCl)cc1)C(=O)O [Melphalan]	< 0	< 0	< 0	< 0	< 0	< 0	0.49	< 0
C#C[C@]1(O)CC[C@H]2[C@@H]3CCC4=CC(=O)CC[C@]4(C)[C@H]3CC[C@@]21C [Ethisterone]	< 0	< 0	< 0	< 0	< 0	< 0	0.12	< 0
CC(=O)Nc1ccc(OC[C@](C)(O)C(=O)Nc2ccc([N+](=O)[O-])c(C(F)(F)F)c2)cc1 [Andarine]	< 0	< 0	< 0	< 0	< 0	< 0	< 0	< 0
Cc1nc(-c2ccc(-c3ccc(C(=O)N4CCc5cc6c(cc54)C4(CCN(C)CC4)CO6)cc3)c(C)c2)no1	< 0	< 0	< 0	< 0	< 0	< 0	< 0	< 0
C/C=C(\C)C(=O)N[C@@H](c1ccccc1)[C@@H](O)C(=O)O[C@H]1C[C@@]2(O)[C@@H](OC(=O)c3ccccc3)[C@@H]3[C@]4(OC(C)=O)CO[C@@H]4C[C@H](O)[C@@]3(C)C(=O)[C@H](OC(C)=O)C(=C1C)C2(C)C [Cephalomannine]	31.9	50.2	79.6	74.5	54.2	59	40.7	76.4
CN1CCN(c2ccc([N+](=O)[O-])c3no[n+]([O-])c23)CC1	< 0	< 0	< 0	< 0	< 0	< 0	< 0	< 0
O=C1CC[C@@]2(O)[C@H]3Cc4ccc(O)c5c4[C@@]2(CCN3CC2CC2)[C@H]1O5 [Naltrexone hydrochloride]	< 0	< 0	< 0	< 0	< 0	4.24	< 0	< 0
COC(=O)C1=CCCN(C)C1 [Arecoline]	< 0	< 0	< 0	< 0	< 0	< 0	< 0	< 0

For convenience, some entries already given.
SMILES	reduction in cell viability [1] [%]	reduction in cell viability [2] [%]	reduction in cell viability [3] [%]	reduction in cell viability [4] [%]	reduction in cell viability [5] [%]	reduction in cell viability [6] [%]	reduction in cell viability [7] [%]	reduction in cell viability [8] [%]
CN1CCN(c2ccc([N+](=O)[O-])c3no[n+]([O-])c23)CC1	< 0	< 0	< 0	< 0	< 0	< 0	< 0	< 0
O=C1CC[C@@]2(O)[C@H]3Cc4ccc(O)c5c4[C@@]2(CCN3CC2CC2)[C@H]1O5 [Naltrexone hydrochloride]	< 0	< 0	< 0	< 0	< 0	4.24	< 0	< 0

(further entries)

SMILES	reduction in cell viability [1] [%]	reduction in cell viability [2] [%]	reduction in cell viability [3] [%]	reduction in cell viability [4] [%]	reduction in cell viability [5] [%]	reduction in cell viability [6] [%]	reduction in cell viability [7] [%]	reduction in cell viability [8] [%]
C[C@H]1[C@@H](C(=O)C[C@H]2O[C@@H]3O[C@]4(C)CC[C@H]5[C@H](C)CC[C@@H]([C@H]2C)[C@@]35OO4)O[C@@H]2O[C@]3(C)CC[C@H]4[C@H](C)CC[C@@H]1[C@@]24OO3 [BTM-2C-dimer ketone]	9.52	1.52	19.7	18.4	31.9	29.3	13.5	55.3
C/C(O)=C(\C#N)C(=O)Nc1cc(Br)ccc1Br	< 0	< 0	< 0	< 0	< 0	< 0	< 0	< 0
O=C(O)CCCc1ccc(N(CCCl)CCCl)cc1 [Chlorambucil]	< 0	< 0	< 0	< 0	< 0	< 0	< 0	< 0
C[C@H]1[C@@H](CC(C[C@H]2O[C@@H]3O[C@]4(C)CC[C@H]5[C@H](C)CC[C@@H]([C@H]2C)[C@@]35OO4)CS(=O)(=O)c2ccc(COC(=O)N(C)C)cc2)O[C@@H]2O[C@]3(C)CC[C@H]4[C@H](C)CC[C@@H]1[C@@]24OO3 (stereo partly specified) [ASR-isobudimer-SO2Ph-4-CH2OC(O)NMe2]	13.4	2.93	28.6	22.1	53.8	49.2	34.2	77.3
CC(NC(C)(C)C)C(=O)c1cccc(Cl)c1 (stereo unspecified) [Bupropion hydrochloride]	< 0	< 0	< 0	< 0	< 0	< 0	< 0	< 0
CC1=NN=C(c2ccc(N)cc2)c2cc3c(cc2C1)OCO3	< 0	< 0	< 0	< 0	< 0	< 0	26.1	3.83
COc1ccc2c(c1)[C@@]13CCCC[C@H]1[C@@H](C2)N(C)CC3 [Levomethorphan]	< 0	< 0	< 0	< 0	< 0	< 0	< 0	< 0
C[C@]12CC[C@H]3[C@@H](CCC4=CC(=O)CC[C@@]43C)[C@@H]1CC[C@@H]2OC(=O)CCC1CCCC1 [Testosterone cypionate]	< 0	< 0	< 0	< 0	< 0	< 0	< 0	< 0
CC1C=CC=CCCC=CC=CC=CC=CC(OC2OC(C)C(O)C(N)C2O)CC2OC(O)(CC(O)C(O)CCC(O)CC(O)CC(O)CC(=O)OC(C)C(C)C1O)CC(O)C2C(=O)O (stereo unspecified) [Nystatin]	< 0	< 0	< 0	< 0	< 0	< 0	< 0	< 0
CNC(=O)N1N=C(c2ccc(N)cc2)c2cc3c(cc2CC1C)OCO3 (stereo unspecified)	< 0	< 0	< 0	< 0	< 0	19.9	19	< 0
COc1ccc(CC2NCCc3cc(OC)c(OC)cc32)cc1OC (stereo unspecified) [Tetrahydropapaverine]	< 0	< 0	< 0	< 0	< 0	6.24	2.16	< 0
COc1cc2cc(c1Cl)N(C)C(=O)C[C@H](OC(=O)C(C)C)[C@]1(C)O[C@@H]1[C@H](C)[C@@H]1C[C@@](O)(NC(=O)O1)[C@H](OC)/C=C/C=C(\C)C2 [Ansamitocin P3]	28.5	38.2	41.6	63.3	61.7	46.4	56.9	88.9
O=C(O)C(=O)CBr [3-Bromopyruvate]	< 0	6.2	< 0	< 0	< 0	3.4	< 0	< 0
C[C@](O)(COc1ccc(C#N)cc1)C(=O)Nc1ccc(C#N)c(C(F)(F)F)c1 [Ostarine]	< 0	< 0	< 0	< 0	< 0	< 0	5.22	< 0
COC1(C[S@+]([O-])c2ccccc2)CCN(CCc2c[nH]c3ccc(F)cc23)CC1	< 0	< 0	< 0	< 0	< 0	< 0	< 0	< 0
COC[C@@H](NC(C)=O)C(=O)NCc1ccccc1 [Lacosamide]	< 0	< 0	< 0	< 0	< 0	< 0	< 0	< 0
CC1=C2C[C@H]3[C@@H](CC=C4C[C@@H](O)CC[C@@]43C)[C@@H]2CC[C@]12O[C@@H]1C[C@H](C)CN[C@H]1[C@H]2C [Cyclopamine]	< 0	< 0	< 0	< 0	< 0	< 0	< 0	< 0
CC(C)[C@]12O[C@H]1[C@@H]1O[C@]13[C@]1(O[C@H]1C[C@H]1C4=C(CC[C@@]13C)C(=O)OC4)[C@@H]2O [Triptolide]	80.8	70.2	86.1	72.9	91.4	89.3	86.5	74.7
